In doi:10.1101/773135:
No constants are given. Whether binding was seen depends on the method and setting. Binding seen in cells or lysates may run through a third protein. Sequences can lack the tags named with a protein.

Target: T1, CHCHD2-Flag, Q9Y6H1
T1 chain: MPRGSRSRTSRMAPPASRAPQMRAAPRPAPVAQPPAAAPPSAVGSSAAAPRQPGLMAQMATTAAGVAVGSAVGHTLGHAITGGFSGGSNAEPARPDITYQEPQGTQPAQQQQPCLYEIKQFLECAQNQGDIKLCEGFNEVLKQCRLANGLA
Assay: co-IP
Conditions: remark: other sources report otherwise

binding: no binding
B1: SLP-2 (endogenous), Q9UJZ1 29-356 (protein)
chain: SSGLPRNTVVLFVPQQEAWVVERMGRFHRILEPGLNILIPVLDRIRYVQSLKEIVINVPEQSAVTLDNVTLQIDGVLYLRIMDPYKASYGVEDPEYAVTQLAQTTMRSELGKLSLDKVFRERESLNASIVDAINQAADCWGIRCLRYEIKDIHVPPRVKESMQMQVEAERRKRATVLESEGTRESAINVAEGKKQAQILASEAEKAEQINQAAGEASAVLAKAKAKAEAIRILAAALTQHNGDAAASLTVAEQYVSAFSKLAKDSNTILLPSNPGDVTSMVAQAMGVYGALTKAPVPGTPDSLSSGSSRDVQGTDASLDEELDRVKMS
